For 2 molecules, binding results are on record in article doi:10.1101/2021.06.20.449126.

The chains behind the UniProt entries cited, without tags or fusion partners.
UniProt Q5VT52: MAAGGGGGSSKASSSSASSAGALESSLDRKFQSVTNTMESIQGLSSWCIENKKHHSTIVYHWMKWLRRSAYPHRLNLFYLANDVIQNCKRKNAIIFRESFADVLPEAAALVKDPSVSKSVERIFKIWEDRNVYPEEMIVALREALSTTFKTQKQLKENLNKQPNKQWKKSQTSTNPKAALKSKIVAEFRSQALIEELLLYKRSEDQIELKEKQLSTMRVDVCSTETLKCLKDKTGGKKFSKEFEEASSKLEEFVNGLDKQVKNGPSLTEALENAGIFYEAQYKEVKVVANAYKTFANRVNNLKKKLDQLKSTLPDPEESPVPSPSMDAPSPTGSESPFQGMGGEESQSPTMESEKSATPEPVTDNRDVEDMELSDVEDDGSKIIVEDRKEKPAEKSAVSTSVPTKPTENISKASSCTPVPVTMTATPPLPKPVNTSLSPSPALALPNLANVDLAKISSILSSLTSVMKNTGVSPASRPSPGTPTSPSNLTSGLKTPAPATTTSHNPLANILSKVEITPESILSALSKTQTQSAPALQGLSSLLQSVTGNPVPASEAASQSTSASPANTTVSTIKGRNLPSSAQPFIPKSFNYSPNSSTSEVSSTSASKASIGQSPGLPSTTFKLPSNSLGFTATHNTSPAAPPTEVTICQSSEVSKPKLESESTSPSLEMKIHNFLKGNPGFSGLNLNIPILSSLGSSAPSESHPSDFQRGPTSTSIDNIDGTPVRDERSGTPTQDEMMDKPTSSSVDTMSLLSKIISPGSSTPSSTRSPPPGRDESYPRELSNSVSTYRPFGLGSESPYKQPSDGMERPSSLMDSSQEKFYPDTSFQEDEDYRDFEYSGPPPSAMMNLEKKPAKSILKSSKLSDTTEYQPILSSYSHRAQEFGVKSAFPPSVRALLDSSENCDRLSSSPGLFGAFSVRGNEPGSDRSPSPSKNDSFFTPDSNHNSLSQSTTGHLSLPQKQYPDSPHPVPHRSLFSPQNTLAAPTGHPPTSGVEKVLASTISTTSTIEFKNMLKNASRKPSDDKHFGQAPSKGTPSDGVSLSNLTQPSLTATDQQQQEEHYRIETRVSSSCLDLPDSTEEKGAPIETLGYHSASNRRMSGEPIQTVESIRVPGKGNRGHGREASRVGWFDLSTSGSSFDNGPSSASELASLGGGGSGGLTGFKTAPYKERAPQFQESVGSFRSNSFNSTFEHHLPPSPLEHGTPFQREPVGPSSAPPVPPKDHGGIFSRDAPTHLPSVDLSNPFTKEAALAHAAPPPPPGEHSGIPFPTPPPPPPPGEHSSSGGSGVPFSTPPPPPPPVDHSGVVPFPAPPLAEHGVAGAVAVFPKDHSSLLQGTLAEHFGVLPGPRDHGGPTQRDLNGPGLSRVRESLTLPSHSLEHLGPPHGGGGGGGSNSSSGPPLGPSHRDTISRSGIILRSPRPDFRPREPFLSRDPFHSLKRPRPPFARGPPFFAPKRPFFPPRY

Where two headings read alike, the source gives them in different places. Results are given in words; binding and its absence hold for the method and conditions named. In cells and extracts the contact can be indirect. Some entries that bind do so weakly or less than the wild type. For some assays here: Tags and fused reporters may be left off the sequences shown.

Holding throughout (test): co-IP
Test [1] has as its target T1, full-length (FL) RPRD1B-3F, tetracycline-inducible, Flp-In T-REx 293 (human) (UniProt Q9NQG5).
T1 sequence: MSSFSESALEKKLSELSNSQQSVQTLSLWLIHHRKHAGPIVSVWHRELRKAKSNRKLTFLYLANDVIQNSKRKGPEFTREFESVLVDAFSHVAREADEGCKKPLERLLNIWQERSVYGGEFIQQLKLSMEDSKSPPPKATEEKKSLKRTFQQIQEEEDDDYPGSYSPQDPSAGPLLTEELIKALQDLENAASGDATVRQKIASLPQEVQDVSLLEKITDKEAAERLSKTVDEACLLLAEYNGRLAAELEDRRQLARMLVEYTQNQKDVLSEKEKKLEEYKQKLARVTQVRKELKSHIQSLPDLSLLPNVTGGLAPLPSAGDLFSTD

Test [2] has as its target T1, full-length (FL) RPRD1B-3F, tetracycline-inducible, Flp-In T-REx 293 (human). The source holds these as a separate data set.
The target is the same in test [3]. The source holds these as a separate data set.
The target of test [4] is T2, full-length RPRD1A-3F, tetracycline-inducible, Flp-In T-REx 293 (human) (UniProt Q96P16).
T2 sequence: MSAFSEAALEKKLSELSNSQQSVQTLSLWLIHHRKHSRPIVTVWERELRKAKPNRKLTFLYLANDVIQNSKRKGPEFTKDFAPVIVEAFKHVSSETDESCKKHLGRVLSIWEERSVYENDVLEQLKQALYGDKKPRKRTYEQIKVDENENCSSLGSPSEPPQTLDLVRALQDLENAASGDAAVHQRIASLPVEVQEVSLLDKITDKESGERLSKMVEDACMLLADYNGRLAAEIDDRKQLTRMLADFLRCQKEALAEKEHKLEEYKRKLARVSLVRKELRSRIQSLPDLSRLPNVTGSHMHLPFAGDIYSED

Test [5] deals with T1, full-length (FL) RPRD1B-3F, tetracycline-inducible, Flp-In T-REx 293 (human). The source holds these as a separate data set.
Test [6] addresses endogenous RPRD2 (human (endogenous in HEK293T and Flp-In T-REx 293)) (UniProt Q5VT52).
For test [7], the target named is T2, full-length RPRD1A-3F, tetracycline-inducible, Flp-In T-REx 293 (human). This is another data set of the same source.
For test [8], the target named is T3, RPRD1A CID domain variant, 3F-tagged (human) (UniProt Q96P16).
T3 sequence: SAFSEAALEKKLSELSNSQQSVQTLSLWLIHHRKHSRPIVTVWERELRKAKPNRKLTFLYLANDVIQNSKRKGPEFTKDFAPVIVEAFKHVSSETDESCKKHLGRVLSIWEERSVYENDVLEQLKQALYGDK

With “endogenous RPRD2 (from UniProt Q5VT52 1-1461)”, the binding entry is “binds weakly” in test [1], “binds” in test [2] and “binds” in test [3].

B1: endogenous RPRD1B (protein, UniProt Q9NQG5 1-326)
chain: MSSFSESALEKKLSELSNSQQSVQTLSLWLIHHRKHAGPIVSVWHRELRKAKSNRKLTFLYLANDVIQNSKRKGPEFTREFESVLVDAFSHVAREADEGCKKPLERLLNIWQERSVYGGEFIQQLKLSMEDSKSPPPKATEEKKSLKRTFQQIQEEEDDDYPGSYSPQDPSAGPLLTEELIKALQDLENAASGDATVRQKIASLPQEVQDVSLLEKITDKEAAERLSKTVDEACLLLAEYNGRLAAELEDRRQLARMLVEYTQNQKDVLSEKEKKLEEYKQKLARVTQVRKELKSHIQSLPDLSLLPNVTGGLAPLPSAGDLFSTD
Consider B1, for which the binding result in test [4] was “binds”; in test [5] it was “binds”; in test [6], “binds”; in test [7], “binds”; in test [8], “no binding”.
